Experimental data taken from the RNAGym collection of RNA variant scans (doi:10.1126/science.aae0568).
Variants at the background level are over-represented here.

B1: tRNA (parent)
chain: GUUCCGUUGGCGUAAUGGUAACGCGUCUCCCUCCUAAGGAGAAGACUGCGGGUUCGAGUCCCGUACGGAACG

Variants of: B1
Assay: yeast fitness relative to wild type (ratio to wild type); higher = fitter; tRNA-Arg(CCU), competitive growth, 37 C, YPD
In short: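 Variants of the tRNA-Arg(CCU) gene, chemically synthesised with a 3% per-site mutation rate at 69 sites, were placed at the native genomic locus in Saccharomyces cerevisiae. The pooled strains were competed in YPD at 37°C for 24 hours in six parallel replicates. Gene amplicons from the start population and from each end population were read by 100-nucleotide paired-end sequencing. Darwinian fitness relative to wild type came from changes in genotype frequencies; genotypes needed ≥ 100 starting reads, and estimates < 0.5 were set to 0.5.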
For G12C C61A C62G G63A, the yeast fitness was ≤ 0.5. In the case of G12C G41C A57G G68C, the yeast fitness is reported as ≤ 0.5. In the case of G12C U16A C49G G67C, the yeast fitness is reported as ≤ 0.5. With G12C U16A C60G C61U G68A the yeast fitness was ≤ 0.5. With G12C U26A G67U the yeast fitness was ≤ 0.5. With U13A A14U C22G A45U G63A the yeast fitness was ≤ 0.5. For U13A A15U A36C, the yeast fitness was ≤ 0.5. In the case of U13A C22U G63C, the yeast fitness is reported as ≤ 0.5. Work on U13A C27U yielded a yeast fitness of 0.984. For U13A C31G C46G A69C, the yeast fitness was ≤ 0.5. With U13A C31U C34U U54C the yeast fitness was ≤ 0.5. In the case of U13A C33U G52C A65G, the yeast fitness is reported as ≤ 0.5. With U13A C34U A40U G63A A65C the yeast fitness was ≤ 0.5. In the case of U13A C46G G63C C66A, the yeast fitness is reported as ≤ 0.5. For U13A C49U C62U G67C, the yeast fitness was ≤ 0.5. In the case of U13A G23A A36C G38A, the yeast fitness is reported as ≤ 0.5. With U13A G41C G52A the yeast fitness was ≤ 0.5. In the case of U13A U47A U64A, the yeast fitness is reported as ≤ 0.5. With U13C A14G A42C C62G A70U the yeast fitness was ≤ 0.5. In the case of U13C A37G G68C, the yeast fitness is reported as ≤ 0.5. For U13C A42U C55U, the yeast fitness was ≤ 0.5. For U13C A57C C61A, the yeast fitness was ≤ 0.5. With U13C C22A U47C C55G the yeast fitness was ≤ 0.5. With U13C C24U G41A C62A the yeast fitness was ≤ 0.5. In the case of U13C C29G U59A C60G C62U, the yeast fitness is reported as ≤ 0.5. For U13C G23C G38A C61U, the yeast fitness was ≤ 0.5. With U13G A20C C27U A42C C49A the yeast fitness was ≤ 0.5. In the case of U13G A36C G39A, the yeast fitness is reported as ≤ 0.5. For U13G C27U G44A A57U, the yeast fitness was ≤ 0.5. For U13G G44A A57U G67A, the yeast fitness was ≤ 0.5. For U13G G48A, the yeast fitness was 0.986. For U13G U16A G44A C49G, the yeast fitness was ≤ 0.5. For U13G U19C G38C A42G G56C U59A A70U, the yeast fitness was ≤ 0.5. With U13G U26G G52A the yeast fitness was ≤ 0.5. For U13G U32A C33A, the yeast fitness was ≤ 0.5. For A14C A15U C62G, the yeast fitness was ≤ 0.5. For A14C A20G A36G C55U G68C, the yeast fitness was ≤ 0.5. With A14C A36G G41A G48C U59C the yeast fitness was 0.7. For A14C A43G A65U, the yeast fitness was ≤ 0.5. In the case of A14C A45G A57G, the yeast fitness is reported as ≤ 0.5. A14C A69G showed a yeast fitness of 0.692. In the case of A14C C24A C31A C66A, the yeast fitness is reported as ≤ 0.5. For A14C C24U A40U G44A, the yeast fitness was ≤ 0.5. For A14C C27G C46G G63A A65G, the yeast fitness was ≤ 0.5. In the case of A14C C29U U47G G50A C62A A70C, the yeast fitness is reported as ≤ 0.5. In the case of A14C C30A A37C G39A, the yeast fitness is reported as ≤ 0.5. A14C C30G showed a yeast fitness of 0.508. With A14C C30G G68C the yeast fitness was ≤ 0.5. In the case of A14C C31G G44C, the yeast fitness is reported as ≤ 0.5. For A14C C62G, the yeast fitness was 0.599. For A14C C62G C66U, the yeast fitness was ≤ 0.5. In the case of A14C G25A A43U, the yeast fitness is reported as ≤ 0.5. For A14C G25C U47A C66A, the yeast fitness was ≤ 0.5. With A14C U16C A21G C29A C34U A69U the yeast fitness was ≤ 0.5. For A14C U19A A45C, the yeast fitness was ≤ 0.5. In the case of A14G A15C C30A A69C, the yeast fitness is reported as ≤ 0.5. For A14G A15C C55U, the yeast fitness was ≤ 0.5. In the case of A14G A42C C61U, the yeast fitness is reported as ≤ 0.5. Work on A14G A42G G48C yielded a yeast fitness of 0.568. In the case of A14G A43C C55G, the yeast fitness is reported as ≤ 0.5. In the case of A14G A45U C60A, the yeast fitness is reported as ≤ 0.5. In the case of A14G C22G C30G, the yeast fitness is reported as ≤ 0.5. For A14G C24A A36G U64A, the yeast fitness was ≤ 0.5. In the case of A14G C24A A36U C55A G63A, the yeast fitness is reported as ≤ 0.5. In the case of A14G C24G G50A C55G, the yeast fitness is reported as ≤ 0.5. In the case of A14G C27A A37C G44A A65G C66U, the yeast fitness is reported as ≤ 0.5. With A14G C29G A37G C46U C66G the yeast fitness was ≤ 0.5. In the case of A14G C29G C31U U59C A70C, the yeast fitness is reported as ≤ 0.5. In the case of A14G C31U C49G A57G, the yeast fitness is reported as ≤ 0.5. In the case of A14G C34G A65U A70G, the yeast fitness is reported as ≤ 0.5. For A14G C46U G50A G52C G67C, the yeast fitness was ≤ 0.5. In the case of A14G G23A A70C, the yeast fitness is reported as ≤ 0.5. In the case of A14G G44C U47A C49G, the yeast fitness is reported as ≤ 0.5. For A14G G52A, the yeast fitness was 0.631. For A14G U28C G67A, the yeast fitness was 0.534. For A14G U28C G67U A69C, the yeast fitness was ≤ 0.5. With A14U A15G C61U the yeast fitness was ≤ 0.5. For A14U A20C C31G A69U, the yeast fitness was ≤ 0.5. With A14U A20G U32G the yeast fitness was ≤ 0.5. For A14U A21C C29U U53C C55U A70G, the yeast fitness was ≤ 0.5. For A14U A43C C49G C62G, the yeast fitness was ≤ 0.5. With A14U A43G G63C the yeast fitness was ≤ 0.5. For A14U A43U U64A A69C, the yeast fitness was ≤ 0.5. For A14U A45G U53C, the yeast fitness was ≤ 0.5. With A14U C24G C31A A40G G44C A69U the yeast fitness was ≤ 0.5. With A14U C24G U54G the yeast fitness was ≤ 0.5. For A14U C24U C29A G52C C55A, the yeast fitness was ≤ 0.5. With A14U C29G C30U U53C U54G the yeast fitness was ≤ 0.5. For A14U C29G G41A, the yeast fitness was ≤ 0.5. In the case of A14U C29G G41A C49G A57G, the yeast fitness is reported as ≤ 0.5. For A14U C29G U53C U54G C55U, the yeast fitness was ≤ 0.5. With A14U C30A G67A the yeast fitness was ≤ 0.5. For A14U C34G C46A C62U G68A A69C, the yeast fitness was ≤ 0.5. In the case of A14U G25A C62A G63A A70G, the yeast fitness is reported as ≤ 0.5. In the case of A14U G25C C30U U47C, the yeast fitness is reported as ≤ 0.5. For A14U G39A G63A, the yeast fitness was ≤ 0.5. For A14U G44A A65U, the yeast fitness was ≤ 0.5. With A14U G44A A70G the yeast fitness was ≤ 0.5. A14U G44C G51A A70U showed a yeast fitness of 0.596. In the case of A14U G52C C55G, the yeast fitness is reported as ≤ 0.5. In the case of A14U U16A G25A A37G, the yeast fitness is reported as ≤ 0.5. In the case of A14U U19A C22U, the yeast fitness is reported as ≤ 0.5. For A15C A20G C22A G23U G38C C49U, the yeast fitness was ≤ 0.5. For A15C A21C A42C, the yeast fitness was ≤ 0.5. In the case of A15C A36C G38C G52A A70U, the yeast fitness is reported as ≤ 0.5. With A15C A36U A37G A65C the yeast fitness was ≤ 0.5. With A15C A36U A57U the yeast fitness was ≤ 0.5. In the case of A15C A43C C46G A57U, the yeast fitness is reported as ≤ 0.5. With A15C C24U the yeast fitness was 0.601. With A15C C27U C34U G52A C61A A70U the yeast fitness was ≤ 0.5. With A15C C27U G39C the yeast fitness was ≤ 0.5. With A15C C30U A70C the yeast fitness was ≤ 0.5. With A15C C31U U35C G38A G56C A70U the yeast fitness was ≤ 0.5. For A15C C31U U35G C62U, the yeast fitness was ≤ 0.5. With A15C C33U C49U the yeast fitness was ≤ 0.5. For A15C C62G C66A A69C, the yeast fitness was ≤ 0.5. In the case of A15C G17C, the yeast fitness is reported as 0.62. For A15C G18C A70G, the yeast fitness was ≤ 0.5. In the case of A15C G25C C29U U35C A43U G56C, the yeast fitness is reported as ≤ 0.5. With A15C G38A A57G the yeast fitness was ≤ 0.5. With A15C G48C C66U G67C A70G the yeast fitness was ≤ 0.5. In the case of A15C U16C A70U, the yeast fitness is reported as ≤ 0.5. For A15C U19A C24G C34G C46U C61A, the yeast fitness was ≤ 0.5. With A15C U19C A37C A69U the yeast fitness was ≤ 0.5. In the case of A15G A20G C27A A40G A45C A57G, the yeast fitness is reported as ≤ 0.5. In the case of A15G A36C G67C, the yeast fitness is reported as ≤ 0.5. For A15G A42C C49A, the yeast fitness was 0.527. In the case of A15G A43U U47G G63A A65G, the yeast fitness is reported as ≤ 0.5. In the case of A15G A57G, the yeast fitness is reported as 0.899. For A15G C22A U26A A40U U54G A65U G67A, the yeast fitness was ≤ 0.5. For A15G C22U U53G, the yeast fitness was ≤ 0.5. In the case of A15G C24A U64A, the yeast fitness is reported as ≤ 0.5. For A15G C24U G38C A40G, the yeast fitness was ≤ 0.5. With A15G C24U G68C the yeast fitness was ≤ 0.5. For A15G C29G C30G G44A, the yeast fitness was ≤ 0.5. For A15G C30U G41A A69C, the yeast fitness was ≤ 0.5. Variant A15G C31G has a yeast fitness of 0.852. In the case of A15G C31U U64A, the yeast fitness is reported as ≤ 0.5. With A15G C49A A57C A69U the yeast fitness was ≤ 0.5. In the case of A15G G17A C33U G39C C55A G67C, the yeast fitness is reported as 0.66. In the case of A15G G17C A21C, the yeast fitness is reported as ≤ 0.5. With A15G G23C C30A A42C G51C C61A G67A the yeast fitness was ≤ 0.5. With A15G G38C U64A A65G G68A A69C the yeast fitness was ≤ 0.5. In the case of A15G G39A C62A G67C, the yeast fitness is reported as ≤ 0.5. With A15G G39C the yeast fitness was 0.736. In the case of A15G G41C A43C, the yeast fitness is reported as ≤ 0.5. For A15G G51A C62U, the yeast fitness was ≤ 0.5. For A15G G52A A57U G58C, the yeast fitness was ≤ 0.5. A15G U26A showed a yeast fitness of 1.04. In the case of A15G U54A C55U C66A, the yeast fitness is reported as ≤ 0.5. In the case of A15G U54C C55G, the yeast fitness is reported as ≤ 0.5. For A15U A20G C22G U28A C31G C55A G68C, the yeast fitness was ≤ 0.5. A15U A21C showed a yeast fitness of 0.611. In the case of A15U A21C G51C G52A, the yeast fitness is reported as ≤ 0.5. In the case of A15U C22G C27G A42C G63C, the yeast fitness is reported as ≤ 0.5. With A15U C27G A36C the yeast fitness was ≤ 0.5. With A15U C27U C66A the yeast fitness was ≤ 0.5. In the case of A15U C29U C31A A37G U47A, the yeast fitness is reported as ≤ 0.5. In the case of A15U C31G U54G, the yeast fitness is reported as ≤ 0.5. In the case of A15U C33G C66U, the yeast fitness is reported as ≤ 0.5. With A15U C34U C60G the yeast fitness was ≤ 0.5. In the case of A15U C60G C61U G68A, the yeast fitness is reported as ≤ 0.5. With A15U C61U C62G A69U the yeast fitness was ≤ 0.5. With A15U G17A A70C the yeast fitness was ≤ 0.5. With A15U G18C C55U the yeast fitness was ≤ 0.5. For A15U G23U A37U C49G A65G, the yeast fitness was ≤ 0.5. A15U G39A gave a yeast fitness of 0.667.
